Source: patent US9290745B2, “Luciferase biosensor” (PROMEGA CORPORATION, priority 2003, dated 2016)
For at least one compound, name, drawing or mass did not settle the structure.

Columns and labels:
[1] = system: FRB-luciferase-FKBP (green click beetle, cbg); experiment: In vitro luciferase modulator system, green click beetle double fusion; assay type: biochemical, Pyrophorus plagiophalam; conditions: 0.2 μM rapamycin
[2] = system: FRB-luciferase-FKBP (red click beetle, cbr); experiment: In vitro luciferase modulator system, red click beetle double fusion; assay type: biochemical, Pyrophorus plagiophalam; conditions: 0.2 μM rapamycin

`CO[C@H]1C[C@@H]2CC[C@@H](C)[C@@](O)(O2)C(=O)C(=O)N2CCCC[C@H]2C(=O)O[C@H]([C@H](C)C[C@@H]2CC[C@@H](O)[C@H](OC)C2)CC(=O)[C@H](C)/C=C(\C)[C@@H](O)[C@@H](OC)C(=O)[C@H](C)C[C@H](C)/C=C/C=C/C=C/1C` [rapamycin] was tested, and the “luminescence response to rapamycin” value [1] was “luminescence decreased” and the “luminescence response to rapamycin” value [2] was “luminescence decreased”.
